Experimental data taken from patent publication US11560380B2, “Substituted naphthalene diimides and their use” (UCL Business Ltd, priority 2019, dated 2023).

Tested on: LNCaP
Assay: 72 hr XTT cell viability assay, LNCaP
Assay type: cell-based
Conditions: Homo sapiens, read-out: IC50 cell growth inhibition
Text: The CyQUANT XTT Cell Viability Assay (Invitrogen) is a complete, optimized assay that generates a consistent colorimetric detection of viable mammalian cells. The assay kit consists of two reagents, XTT Reagent (2,3-bis-(2-methoxy-4-nitro-5-sulfophenyl)-2H-tetrazolium-5-carboxanilide) and Electron Coupling Reagent. XTT Reagent is used to assess cell viability as a function of cellular redox potential, and the electron coupling reagent improves the dynamic range of the assay. The kit was used as per the manufacturers' instructions.

- IC50: 4.82 µM
SMILES: CNC(=O)c1ccc(N2C(=S)N(c3ccc(C#N)c(C(F)(F)F)c3)C(=O)C2(C)C)cc1F [Enzalutamide]
